Reference: patent US20230174582A1, “VIPR2 ANTAGONIST PEPTIDE” (ICHIMARU PHARCOS CO., LTD, priority 2020, published 2023)
Some entries share one result that the patent states for a list of compounds. Starred links: 1 amine or outer side, 2 acyl side, 3 side chain; linkers in the order of their positions; H or OH if unused. Positions of bridges follow the written chain, without caps; N, C: chain ends. Non-standard residues stand in square brackets, D forms with d. Residues, ends and D or L forms follow the SMILES beside them. mXylylene = c1cc(C[*:1])cc(C[*:2])c1; NMeY = CN[C@@H](Cc1ccc(O)cc1)C(=O)O; Mpa = O=C(O)CCS

Target: T1, VIPR2 (Homo sapiens, UniProt P41587)
T1 sequence (P41587 24-438): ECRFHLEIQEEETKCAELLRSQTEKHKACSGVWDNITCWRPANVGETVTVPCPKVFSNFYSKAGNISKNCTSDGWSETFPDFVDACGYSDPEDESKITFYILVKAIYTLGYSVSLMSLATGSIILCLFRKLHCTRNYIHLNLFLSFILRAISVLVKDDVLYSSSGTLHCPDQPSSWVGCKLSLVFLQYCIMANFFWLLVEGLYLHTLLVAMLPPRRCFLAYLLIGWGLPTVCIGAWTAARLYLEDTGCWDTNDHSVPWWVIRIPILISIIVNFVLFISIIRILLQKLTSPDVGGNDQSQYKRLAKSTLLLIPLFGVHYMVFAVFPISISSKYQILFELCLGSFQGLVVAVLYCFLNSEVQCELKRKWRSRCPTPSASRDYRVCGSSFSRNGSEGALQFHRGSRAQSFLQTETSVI
Experiment: Competitive binding assay by cell-based ELISA (competition with Biotin-VIpep-3)
Design: host or cells: purchased human VIPR2-expressing cell line
Settings: for binding activity to VIPR2-expressing cells (competition against Biotin-VIpep-3): Biotin-VIpep-3 1000 nM, on ice 60 minutes, N=4, FIG. 4; for binding activity compared with VIpep-3: relative to parent peptide VIpep-3, FIG. 4

Molecule	binding activity to VIPR2-expressing cells (competition against Biotin-VIpep-3)	binding activity compared with VIpep-3
c(Mpa-NmeTyr-Leu-NmeGly-c(Cys)-Tyr-Leu-Cys)-Ser-Leu-Ile-NH2 [Seq-8, cyclization TBMB(1-5-8)]	show binding activity	–
c(Mpa-NmeTyr-Leu-Pro-c[Lys-Tyr-Leu-Cys)-Asp]-Leu-Ile-NH2 [Seq-3, cyclization DlPen(1-8)/amide(5-9)]	show binding activity	equal to or higher than those of VIpep-3
c(Mpa-NmeTyr-Leu-NmeGly-c(Cys)-Tyr-Leu-Cys)-Dap-Leu-Ile-NH2 [Seq-9, cyclization TBMB(1-5-8)]	show binding activity	–
CC[C@H](C)[C@H](NC(=O)[C@H](CC(C)C)NC(=O)[C@@H]1CC(=O)NCCCC[C@@H]2NC(=O)[C@@H]3CCCN3C(=O)[C@H](CC(C)C)NC(=O)[C@H](Cc3ccc(O)cc3)N(C)C(=O)CCSCc3cccc(c3)CSC[C@H](NC(=O)[C@H](CC(C)C)NC(=O)[C@H](Cc3ccc(O)cc3)NC2=O)C(=O)N1)C(N)=O [Seq-6, c(Mpa-NmeTyr-Leu-Pro-c[Lys-Tyr-Leu-Cys)-Asp]-Leu-Ile-NH2] ([Mpa][NMeY]LPKYLCDLI-NH2; linker 1-8 via mXylylene; lactam 5-9)	show binding activity	equal to or higher than those of VIpep-3
c(Mpa-Pro-Pro-Tyr-Leu-Pro-c[Lys-Tyr-Leu-Cys)-Asp]-Leu-Ile-NH2 [Seq-1, cyclization S-S(1-10)/amide(7-11)]	show binding activity	equal to or higher than those of VIpep-3
CC[C@H](C)[C@H](NC(=O)[C@H](CC(C)C)NC(=O)[C@@H]1CC(=O)NCCCC[C@@H]2NC(=O)[C@@H]3CCCN3C(=O)[C@H](CC(C)C)NC(=O)[C@H](Cc3ccc(O)cc3)NC(=O)[C@@H]3CCCN3C(=O)[C@@H]3CCCN3C(=O)[C@@H](NC(C)=O)CSSC[C@H](NC(=O)[C@H](CC(C)C)NC(=O)[C@H](Cc3ccc(O)cc3)NC2=O)C(=O)N1)C(N)=O [Seq-10, Ac-c(Cys-Pro-Pro-Tyr-Leu-Pro-c[Lys-Tyr-Leu-Cys)-Asp]-Leu-Ile-NH2] (Ac-CPPYLPKYLCDLI-NH2; disulfide 1-10; lactam 7-11)	show binding activity	–
